Test results from patent publication US20090196880A1 (VASGENE THERAPEUTICS, published 2009).
These are yes or no findings as the source states them, for the method shown. Some results given as binding are weak or reduced against the parent protein; the word gives no strength. Where a sequence is shown, tags or fusion partners need not be part of it.

B1: deimmunized #47 variant antibody with heavy chain variable region SEQ ID NO:3 and light chain variable region SEQ ID NO:8 (antibody, human IgG1, V domains shown)
VH: EVQLVQSGAEVKKPGASVKISCKASGYTFTDYYMNWVKQAPGKGLEWIGDNNPNNGGTTYNQKFKGRATLTVDKSTSTAYMELSSLRSEDTAVYYCARGKYYGTSYGWYFDVWGQGTTVTVSS
VL: DIQMTQSPSSLSASVGDRVTITCRISDNIDSYLAWFQQKPGKAPKLLVYDATVLADGVPSRFSGSGSGTDYTLTINSLQAEDAATYYCQVYYSIPWTFGQGTKLEIK
B2: mouse monoclonal antibody #47 (antibody, V domains shown)
VH: EVQLQQSGPELVKPGASVKISCKASGYTFTDYYMNWVKQSHGKGLEWIGDNNPNNGGTTYNQKFKGKATLTVDKSSSTAYMELRSLTSEDSAVYYCARGKYYGTSYGWYFDVWGTGTTVTVSS
VL: DIQMTQSPASLSASVGETVTITCRISDNIDSYLAWFQQKQGKSPQLLVYDATVLADGVPSRFSGSGSGTQYSLKINSLQSEDAARYYCQVYYSIPWTFGGGTKLEIK
notes: also called m47; Mu #47
B3: mouse monoclonal antibody #131 (antibody, V domains shown)
VH: QVQLKQSGAELVKPGASVKISCKASGYTFTDYYINWVKQRPGQGLEWIGKIGPRIGTNYYNENFKGKATLTADISSNTAYMQLHTLTSEDSAVYFCARSEDYSGYVSYALDYWGQGTSVTVSS
VL: NIVMTQSPKSMSMSVGERVTLSCKASENVDTYVSWYQQKPDQSPELLIYGASNRYTGVPDRFTGSGSATDFTLTISSVQAEDLADYHCGQTYRYPFTFGGGTKLEIK
notes: also called m131

target: T1, biotin-labeled soluble EphB4-HSA fusion protein (human) (UniProt P54760); assay: sandwich ELISA: NeutrAvidin plate, biotin-labeled soluble EphB4-HSA, detection with goat anti-human-Fc-HRP
T1 sequence (chain, biotin-labeled (site not stated)): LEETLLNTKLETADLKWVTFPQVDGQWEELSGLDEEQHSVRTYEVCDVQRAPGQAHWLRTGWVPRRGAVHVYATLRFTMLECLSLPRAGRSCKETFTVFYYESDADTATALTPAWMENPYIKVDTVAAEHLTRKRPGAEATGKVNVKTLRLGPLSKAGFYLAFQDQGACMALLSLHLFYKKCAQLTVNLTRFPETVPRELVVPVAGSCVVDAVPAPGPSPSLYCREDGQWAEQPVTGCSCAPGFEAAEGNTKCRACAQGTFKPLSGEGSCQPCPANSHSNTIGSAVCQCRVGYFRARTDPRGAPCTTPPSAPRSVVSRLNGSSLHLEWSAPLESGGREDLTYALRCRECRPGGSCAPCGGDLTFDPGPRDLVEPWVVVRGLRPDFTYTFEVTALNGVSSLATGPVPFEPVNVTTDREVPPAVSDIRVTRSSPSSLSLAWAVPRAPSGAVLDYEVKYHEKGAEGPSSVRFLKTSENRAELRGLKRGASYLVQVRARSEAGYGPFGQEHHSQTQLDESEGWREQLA

binding, binds:
B1
B2
B3
